Publication PMC5982823, “The Pseudokinase Domain of Saccharomyces cerevisiae Tra1 Is Required for Nuclear Localization and Incorporation into the SAGA and NuA4 Complexes” (G3: Genes|Genomes|Genetics, 2018)
No constants are given. Whether binding was seen depends on the method and setting. In cells and extracts the contact can be indirect. Here binding means that the protein was enriched with, or labelled near, the bait; the list need not be complete. Where a sequence is shown, tags or fusion partners need not be part of it.

Chains of the proteins cited; added tags and fusions are not shown.
UniProt P35177: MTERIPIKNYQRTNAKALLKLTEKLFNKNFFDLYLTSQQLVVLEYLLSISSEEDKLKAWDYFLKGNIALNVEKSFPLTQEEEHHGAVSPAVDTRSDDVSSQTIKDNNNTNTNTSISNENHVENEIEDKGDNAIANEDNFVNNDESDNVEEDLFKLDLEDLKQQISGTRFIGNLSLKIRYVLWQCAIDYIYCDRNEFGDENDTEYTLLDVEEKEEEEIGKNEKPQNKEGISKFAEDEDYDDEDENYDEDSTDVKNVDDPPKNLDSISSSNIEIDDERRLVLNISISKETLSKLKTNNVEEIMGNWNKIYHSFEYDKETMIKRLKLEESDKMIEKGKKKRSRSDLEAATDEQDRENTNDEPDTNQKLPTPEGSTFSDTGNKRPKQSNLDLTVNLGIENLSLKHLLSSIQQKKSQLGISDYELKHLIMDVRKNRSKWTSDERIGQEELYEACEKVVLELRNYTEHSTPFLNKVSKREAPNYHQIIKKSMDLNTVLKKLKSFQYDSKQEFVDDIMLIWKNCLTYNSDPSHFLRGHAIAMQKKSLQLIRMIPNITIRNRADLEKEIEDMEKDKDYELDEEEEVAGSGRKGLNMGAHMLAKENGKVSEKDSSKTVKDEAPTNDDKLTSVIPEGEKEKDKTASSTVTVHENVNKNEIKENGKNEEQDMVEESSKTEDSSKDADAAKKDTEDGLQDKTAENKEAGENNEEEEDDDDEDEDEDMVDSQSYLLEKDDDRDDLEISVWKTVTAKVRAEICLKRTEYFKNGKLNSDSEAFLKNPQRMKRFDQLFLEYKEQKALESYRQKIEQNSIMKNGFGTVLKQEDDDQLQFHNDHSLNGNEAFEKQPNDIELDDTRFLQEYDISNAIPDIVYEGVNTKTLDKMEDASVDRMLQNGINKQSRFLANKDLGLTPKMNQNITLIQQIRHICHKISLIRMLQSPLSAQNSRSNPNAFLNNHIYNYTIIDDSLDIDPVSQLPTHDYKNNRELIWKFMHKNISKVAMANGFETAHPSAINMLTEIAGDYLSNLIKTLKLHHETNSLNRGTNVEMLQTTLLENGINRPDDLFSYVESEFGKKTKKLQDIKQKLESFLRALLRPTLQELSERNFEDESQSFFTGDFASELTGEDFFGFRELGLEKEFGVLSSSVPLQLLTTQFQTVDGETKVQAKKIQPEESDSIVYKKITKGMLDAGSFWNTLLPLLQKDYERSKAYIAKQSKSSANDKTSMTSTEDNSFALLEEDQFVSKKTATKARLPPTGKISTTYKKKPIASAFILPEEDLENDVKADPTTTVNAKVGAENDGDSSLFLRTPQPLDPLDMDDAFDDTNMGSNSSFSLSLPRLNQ
UniProt P38811: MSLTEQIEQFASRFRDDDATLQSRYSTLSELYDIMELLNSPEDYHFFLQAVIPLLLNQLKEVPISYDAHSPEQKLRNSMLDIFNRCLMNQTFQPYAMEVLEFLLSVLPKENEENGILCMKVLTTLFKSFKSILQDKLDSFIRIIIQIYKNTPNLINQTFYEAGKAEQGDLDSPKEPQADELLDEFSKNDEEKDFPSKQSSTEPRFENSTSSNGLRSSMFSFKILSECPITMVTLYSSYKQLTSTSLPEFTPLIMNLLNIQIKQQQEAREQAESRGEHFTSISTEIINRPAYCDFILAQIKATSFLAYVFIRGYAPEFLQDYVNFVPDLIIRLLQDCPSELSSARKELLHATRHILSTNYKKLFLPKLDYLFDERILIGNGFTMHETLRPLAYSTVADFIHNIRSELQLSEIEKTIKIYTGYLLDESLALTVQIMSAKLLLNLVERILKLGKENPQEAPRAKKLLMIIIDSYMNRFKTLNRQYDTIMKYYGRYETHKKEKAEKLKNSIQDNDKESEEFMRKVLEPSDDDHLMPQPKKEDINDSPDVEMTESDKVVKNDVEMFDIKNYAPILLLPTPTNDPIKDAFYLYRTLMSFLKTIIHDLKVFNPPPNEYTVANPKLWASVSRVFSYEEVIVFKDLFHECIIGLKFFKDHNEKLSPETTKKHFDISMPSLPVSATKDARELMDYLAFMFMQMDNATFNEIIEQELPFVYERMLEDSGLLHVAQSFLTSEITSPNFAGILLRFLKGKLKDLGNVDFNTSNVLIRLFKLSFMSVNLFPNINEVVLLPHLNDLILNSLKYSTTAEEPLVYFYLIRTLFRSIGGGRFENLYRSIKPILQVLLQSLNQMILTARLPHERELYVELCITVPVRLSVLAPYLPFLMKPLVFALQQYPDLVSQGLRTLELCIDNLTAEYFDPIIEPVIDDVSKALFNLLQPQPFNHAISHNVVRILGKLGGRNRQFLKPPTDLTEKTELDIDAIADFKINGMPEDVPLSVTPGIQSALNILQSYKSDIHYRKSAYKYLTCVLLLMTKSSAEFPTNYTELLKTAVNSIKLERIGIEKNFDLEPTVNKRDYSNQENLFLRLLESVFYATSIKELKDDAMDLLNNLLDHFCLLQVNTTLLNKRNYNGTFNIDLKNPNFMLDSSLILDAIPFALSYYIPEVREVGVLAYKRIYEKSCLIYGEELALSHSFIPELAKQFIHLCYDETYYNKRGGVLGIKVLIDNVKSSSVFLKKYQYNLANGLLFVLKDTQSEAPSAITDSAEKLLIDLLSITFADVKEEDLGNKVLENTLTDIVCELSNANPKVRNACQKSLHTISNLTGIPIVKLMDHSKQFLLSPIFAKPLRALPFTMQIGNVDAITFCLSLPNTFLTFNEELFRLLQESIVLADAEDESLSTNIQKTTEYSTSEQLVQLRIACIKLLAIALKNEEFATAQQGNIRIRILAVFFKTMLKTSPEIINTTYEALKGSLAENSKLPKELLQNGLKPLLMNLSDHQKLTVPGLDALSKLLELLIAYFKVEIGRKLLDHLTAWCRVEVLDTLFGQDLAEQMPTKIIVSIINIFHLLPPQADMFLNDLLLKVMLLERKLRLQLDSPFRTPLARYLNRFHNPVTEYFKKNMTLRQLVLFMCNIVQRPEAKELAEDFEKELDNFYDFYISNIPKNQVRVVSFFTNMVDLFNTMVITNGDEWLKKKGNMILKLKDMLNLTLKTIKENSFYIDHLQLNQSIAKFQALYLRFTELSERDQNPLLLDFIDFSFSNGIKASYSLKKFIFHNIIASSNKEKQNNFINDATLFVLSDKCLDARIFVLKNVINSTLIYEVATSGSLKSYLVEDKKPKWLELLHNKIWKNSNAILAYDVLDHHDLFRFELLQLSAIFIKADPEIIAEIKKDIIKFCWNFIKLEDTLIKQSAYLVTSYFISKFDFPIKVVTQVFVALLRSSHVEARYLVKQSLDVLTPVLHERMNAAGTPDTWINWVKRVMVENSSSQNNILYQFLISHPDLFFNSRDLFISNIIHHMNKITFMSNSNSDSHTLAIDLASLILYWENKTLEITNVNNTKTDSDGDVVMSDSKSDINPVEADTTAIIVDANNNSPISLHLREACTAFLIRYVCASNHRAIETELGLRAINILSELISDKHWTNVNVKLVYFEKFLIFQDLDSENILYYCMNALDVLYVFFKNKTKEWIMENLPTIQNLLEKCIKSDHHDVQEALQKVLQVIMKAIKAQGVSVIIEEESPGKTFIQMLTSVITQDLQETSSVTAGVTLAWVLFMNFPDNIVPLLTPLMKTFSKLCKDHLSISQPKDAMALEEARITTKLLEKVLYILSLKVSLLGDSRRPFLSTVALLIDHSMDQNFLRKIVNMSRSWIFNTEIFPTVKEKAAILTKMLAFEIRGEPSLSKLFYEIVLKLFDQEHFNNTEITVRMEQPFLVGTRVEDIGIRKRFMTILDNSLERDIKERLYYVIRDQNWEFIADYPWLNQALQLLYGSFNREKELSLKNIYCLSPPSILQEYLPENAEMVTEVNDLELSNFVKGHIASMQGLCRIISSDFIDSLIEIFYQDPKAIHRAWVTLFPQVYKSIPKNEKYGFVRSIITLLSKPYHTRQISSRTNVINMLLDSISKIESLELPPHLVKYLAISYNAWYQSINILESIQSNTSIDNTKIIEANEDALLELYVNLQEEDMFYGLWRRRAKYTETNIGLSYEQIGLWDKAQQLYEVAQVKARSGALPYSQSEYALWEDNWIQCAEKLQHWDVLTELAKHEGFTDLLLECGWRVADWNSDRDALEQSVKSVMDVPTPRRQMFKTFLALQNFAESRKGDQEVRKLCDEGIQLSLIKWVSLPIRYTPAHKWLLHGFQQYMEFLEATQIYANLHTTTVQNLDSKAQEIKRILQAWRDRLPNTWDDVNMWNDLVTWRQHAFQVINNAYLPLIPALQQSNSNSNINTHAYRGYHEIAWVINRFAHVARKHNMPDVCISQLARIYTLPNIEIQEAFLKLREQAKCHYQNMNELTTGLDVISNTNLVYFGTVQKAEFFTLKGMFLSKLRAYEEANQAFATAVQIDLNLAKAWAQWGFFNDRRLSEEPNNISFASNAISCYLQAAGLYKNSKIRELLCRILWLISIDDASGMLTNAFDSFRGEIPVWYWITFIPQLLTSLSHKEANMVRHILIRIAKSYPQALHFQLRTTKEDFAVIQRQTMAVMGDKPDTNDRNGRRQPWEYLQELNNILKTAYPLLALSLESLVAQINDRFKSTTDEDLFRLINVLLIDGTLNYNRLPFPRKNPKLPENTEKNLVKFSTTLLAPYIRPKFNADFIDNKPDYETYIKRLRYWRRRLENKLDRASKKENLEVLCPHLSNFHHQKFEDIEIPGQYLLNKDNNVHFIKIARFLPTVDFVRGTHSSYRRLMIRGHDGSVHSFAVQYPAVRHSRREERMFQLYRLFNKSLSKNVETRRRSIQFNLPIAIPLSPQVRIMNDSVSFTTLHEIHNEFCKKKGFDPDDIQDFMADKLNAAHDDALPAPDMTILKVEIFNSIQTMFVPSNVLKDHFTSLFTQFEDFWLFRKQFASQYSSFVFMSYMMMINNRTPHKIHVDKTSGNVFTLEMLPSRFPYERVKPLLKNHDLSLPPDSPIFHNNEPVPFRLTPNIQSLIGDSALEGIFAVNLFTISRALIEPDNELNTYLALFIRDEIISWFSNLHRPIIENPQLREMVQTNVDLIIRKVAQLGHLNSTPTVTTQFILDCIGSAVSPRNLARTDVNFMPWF

B1: Swc4 (protein, UniProt P53201 1-476)
chain: MSSSDIFDVLNIKQKSRSPTNGQVSVPSSSAANRPKPQVTGMQRELFNLLGENQPPVVIKSGNNFKEKMLSTSKPSPWSFVEFKANNSVTLRHWVKGSKELIGDTPKESPYSKFNQHLSIPSFTKEEYEAFMNENEGTQKSVESEKNHNENFTNEKKDESKNSWSFEEIEYLFNLCKKYDLRWFLIFDRYSYNNSRTLEDLKEKFYYTCRNYFKASDPSNPLLSSLNFSAEKEIERKKYLQRLLSRSAAEIAEEEALVVESKKFEMAAKRTLAERESLLRLLDSPHSDQTITQYLTSQGMSQLYNALLADKTRKRKHDLNIPENPWMKQQQQFAQHRQLQQLNVKKSEVKENLSPKKTKRQRQEMQTALKRKSESAYAEQLLKDFNSDERKALGVITHGEKLSPGVYLRSTKLSTFKPALQNKILAILQELSLPSRPVMPSFDVMERQEELLKKINTLIDLKKHVDKYEAGMSITK

Tests used:
TAP-tagged Ada2 = molecular target: T1, TAP-tagged Ada2 (S. cerevisiae, UniProt Q02336 1-434); experiment: affinity purification with mass spectrometry; tandem affinity purification of TAP-tagged Epl1 or Ada2 from lysates of TRA1 or tra1 Q3 strains (260 mg or 170 mg protein): IgG beads 2 h at 4°, IPP150 (10 mM Tris-HCl pH 8.0, 150 mM NaCl), TEV cleavage, calmodulin beads, EGTA elution; SDS-PAGE, Coomassie Brilliant Blue; bands identified by MALDI mass spectrometry or predicted from mass; band intensity by ImageJ
T1 construct: Ada2, SAGA component, S. cerevisiae; TAP-tagged ADA2; Held on IgG beads, released with TEV protease, then held on calmodulin beads, so part of the TAP tag is cut off during the purification; also called TAP-Ada2; TAP-ADA2; source: S. cerevisiae strain with TAP-tagged ADA2 (bought: Open Biosystems YSC1178-202230655; crossed with CY6582 for the tra1 Q3 strain CY7042), in lysate of cells ground in …
T1 sequence (looked up): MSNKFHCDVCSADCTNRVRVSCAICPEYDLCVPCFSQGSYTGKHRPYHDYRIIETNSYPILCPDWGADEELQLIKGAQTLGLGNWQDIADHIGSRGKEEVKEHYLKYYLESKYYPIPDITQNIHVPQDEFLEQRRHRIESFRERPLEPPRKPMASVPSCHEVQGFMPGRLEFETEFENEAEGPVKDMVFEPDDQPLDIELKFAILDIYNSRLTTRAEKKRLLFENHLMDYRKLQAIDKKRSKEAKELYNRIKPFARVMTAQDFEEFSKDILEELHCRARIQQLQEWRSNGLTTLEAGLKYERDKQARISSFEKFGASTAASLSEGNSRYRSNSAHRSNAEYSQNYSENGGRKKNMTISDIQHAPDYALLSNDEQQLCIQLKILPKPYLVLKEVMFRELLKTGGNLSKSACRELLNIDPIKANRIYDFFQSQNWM

[1] = molecular target: T2, TAP-tagged Epl1 (S. cerevisiae) (UniProt P43572); experiment: as above
T2 sequence: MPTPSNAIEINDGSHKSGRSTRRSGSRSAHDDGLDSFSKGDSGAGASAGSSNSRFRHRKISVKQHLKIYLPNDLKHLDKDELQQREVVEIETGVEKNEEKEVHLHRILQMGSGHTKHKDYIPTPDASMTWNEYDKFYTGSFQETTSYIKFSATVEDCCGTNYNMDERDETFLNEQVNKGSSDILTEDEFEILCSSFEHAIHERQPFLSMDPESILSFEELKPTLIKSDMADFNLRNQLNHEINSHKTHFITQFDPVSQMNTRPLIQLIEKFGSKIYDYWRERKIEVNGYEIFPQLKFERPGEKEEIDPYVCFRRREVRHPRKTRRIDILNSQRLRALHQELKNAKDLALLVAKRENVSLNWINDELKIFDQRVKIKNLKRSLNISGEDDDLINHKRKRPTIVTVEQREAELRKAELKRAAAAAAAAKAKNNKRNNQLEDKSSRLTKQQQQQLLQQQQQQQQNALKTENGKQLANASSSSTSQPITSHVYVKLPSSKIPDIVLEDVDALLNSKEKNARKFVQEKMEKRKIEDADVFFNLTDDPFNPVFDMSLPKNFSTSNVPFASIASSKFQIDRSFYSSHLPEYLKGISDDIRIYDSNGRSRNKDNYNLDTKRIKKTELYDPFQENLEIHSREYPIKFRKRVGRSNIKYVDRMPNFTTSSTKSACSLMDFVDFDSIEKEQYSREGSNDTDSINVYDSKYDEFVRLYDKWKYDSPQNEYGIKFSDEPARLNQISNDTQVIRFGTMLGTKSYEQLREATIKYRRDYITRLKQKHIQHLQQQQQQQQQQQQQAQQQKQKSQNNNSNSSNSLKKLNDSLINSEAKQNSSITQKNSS

Molecule | binding (TAP-tagged Ada2) | binding [1]
Full-length Spt7 (Spt7^SAGA) (from UniProt P35177 1-1332) | binds | –
Tra1 (wild type) (from UniProt P38811 1-3744) | binds | –
B1 | – | binds
